According to PMC7772773:
These are yes or no findings as the source states them, for the method shown. Binding seen in cells or lysates may run through a third protein. Some entries that bind do so weakly or less than the wild type. Sequences can lack the tags named with a protein.

By UniProt entry, the sequences of proteins in these tests, tags left out. Where a name states a change or a piece, a line headed by the entry shows the natural chain unless it says otherwise. Chains listed by the source or under a name are the forms on record and can include a tag or linker.
UniProt Q9R1C8: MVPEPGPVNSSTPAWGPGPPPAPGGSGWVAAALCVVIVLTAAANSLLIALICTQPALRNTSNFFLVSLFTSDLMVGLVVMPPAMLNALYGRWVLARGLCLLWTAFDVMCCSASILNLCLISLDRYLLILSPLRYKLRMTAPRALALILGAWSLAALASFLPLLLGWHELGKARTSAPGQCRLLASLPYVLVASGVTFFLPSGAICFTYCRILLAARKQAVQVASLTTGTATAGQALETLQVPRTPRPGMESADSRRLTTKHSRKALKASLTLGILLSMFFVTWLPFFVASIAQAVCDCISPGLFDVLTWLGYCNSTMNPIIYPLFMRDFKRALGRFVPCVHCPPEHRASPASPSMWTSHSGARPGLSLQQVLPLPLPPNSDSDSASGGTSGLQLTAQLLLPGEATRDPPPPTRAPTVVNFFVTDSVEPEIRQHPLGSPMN
myc-HTR6(CT-mut3) (Q9R1C8, form named): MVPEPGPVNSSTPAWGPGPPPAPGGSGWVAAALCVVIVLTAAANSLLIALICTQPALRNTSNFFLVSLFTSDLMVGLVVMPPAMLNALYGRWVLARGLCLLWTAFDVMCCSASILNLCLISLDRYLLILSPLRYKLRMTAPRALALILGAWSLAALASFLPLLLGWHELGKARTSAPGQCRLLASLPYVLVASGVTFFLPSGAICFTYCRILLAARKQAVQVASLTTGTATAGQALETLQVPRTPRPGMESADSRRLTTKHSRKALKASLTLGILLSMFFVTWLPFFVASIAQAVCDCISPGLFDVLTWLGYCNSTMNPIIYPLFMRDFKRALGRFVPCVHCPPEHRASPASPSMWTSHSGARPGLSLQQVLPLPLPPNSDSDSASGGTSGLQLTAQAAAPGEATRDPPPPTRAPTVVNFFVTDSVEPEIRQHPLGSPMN
myc-HTR6(IC3-mut4+CT-mut3) (Q9R1C8, form named): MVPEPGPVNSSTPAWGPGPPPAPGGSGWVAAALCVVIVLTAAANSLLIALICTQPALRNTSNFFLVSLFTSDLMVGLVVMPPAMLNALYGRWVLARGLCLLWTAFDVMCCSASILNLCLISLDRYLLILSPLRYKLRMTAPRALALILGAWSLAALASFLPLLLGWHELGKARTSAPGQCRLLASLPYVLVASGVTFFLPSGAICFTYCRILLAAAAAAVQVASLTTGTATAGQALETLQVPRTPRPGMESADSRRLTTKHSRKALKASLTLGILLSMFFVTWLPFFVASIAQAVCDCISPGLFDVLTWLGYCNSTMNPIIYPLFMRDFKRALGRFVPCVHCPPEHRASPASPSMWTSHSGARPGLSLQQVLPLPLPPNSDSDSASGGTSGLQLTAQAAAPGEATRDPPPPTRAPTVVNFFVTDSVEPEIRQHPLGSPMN
myc-HTR6(IC3-mut4) (Q9R1C8, form named): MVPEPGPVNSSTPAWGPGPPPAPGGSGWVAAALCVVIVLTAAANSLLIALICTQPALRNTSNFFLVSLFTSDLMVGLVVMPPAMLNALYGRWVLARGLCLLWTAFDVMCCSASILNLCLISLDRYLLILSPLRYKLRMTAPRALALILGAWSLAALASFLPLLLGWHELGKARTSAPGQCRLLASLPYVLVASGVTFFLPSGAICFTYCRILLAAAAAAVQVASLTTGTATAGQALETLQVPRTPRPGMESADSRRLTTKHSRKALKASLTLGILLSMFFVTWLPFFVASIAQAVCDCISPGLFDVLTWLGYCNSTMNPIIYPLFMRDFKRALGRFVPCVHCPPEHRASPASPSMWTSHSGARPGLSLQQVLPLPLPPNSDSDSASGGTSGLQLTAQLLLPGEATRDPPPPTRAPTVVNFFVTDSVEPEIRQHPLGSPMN

Key:
[1] = biological target: T1, Flag-RABL2B (human) (UniProt Q9UNT1); experiment: co-IP; HEK293T lysates (50 mM Hepes pH 7.5, 150 mM NaCl, 5 mM MgCl2, 0.5% NP-40, 1 mM DTT); Flag-RABL2B precipitated with anti-Flag agarose beads, 2 h at 4°C, from 2 mg of total protein; blots with anti-HTR6 and anti-Flag antibodies
T1 sequence: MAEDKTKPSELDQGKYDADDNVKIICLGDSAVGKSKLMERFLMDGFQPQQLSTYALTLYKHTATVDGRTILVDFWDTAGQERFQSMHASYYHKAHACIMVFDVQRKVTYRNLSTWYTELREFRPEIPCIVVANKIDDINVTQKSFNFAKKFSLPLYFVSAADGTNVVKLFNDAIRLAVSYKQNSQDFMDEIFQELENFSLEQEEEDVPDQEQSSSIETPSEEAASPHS

[2] = biological target: T2, EGFP-RABL2B (human) (UniProt Q9UNT1); experiment: co-IP; HEK293T lysates (50 mM Tris–HCl pH 7.5, 150 mM NaCl, 0.5 mM EDTA, 1% Igepal CA-630); EGFP-RABL2B precipitated with GFP-Trap_MA beads, 2 h at 4°C; co-precipitated myc- or Flag-tagged HTR6 constructs detected by Western blot; in Fig 12K with coexpressed TULP3-myc, TULP3-KR-myc (K268A+R270A) or myc-B9D1
T2 sequence: T1 sequence

binding [1]	binding [2]	Substance
binds	binds	myc-HTR6(CT-mut3) (from UniProt Q9R1C8 1-440) (receptor)
binds	binds	myc-HTR6 (from UniProt Q9R1C8 1-440) (receptor)
	binds	HTR6-Flag (from UniProt Q9R1C8 1-440) (receptor)
	binds	myc-HTR6(IC3-mut4+CT-mut3) (from UniProt Q9R1C8 1-440) (receptor)
	binds	myc-HTR6(IC3-mut4) (from UniProt Q9R1C8 1-440) (receptor)
